Results are given in words; binding and its absence hold for the method and conditions named. In cells and extracts the contact can be indirect. Some results given as binding are weak or reduced against the parent protein; the word gives no strength.
Tests used:
[1] = target: Flag-SMARCA4 full-length, R1157W mutant (human) (UniProt P51532); test: co-IP; lysates of HCT116 cells transfected with SMARCA4-WT or SMARCA4-R1157W plasmids; anti-SMARCA4 antibody for the immunoprecipitation, immunoblot for the subunits
[2] = target: Flag-SMARCA4 full-length, wild-type (human) (UniProt P51532); test: as above

The chains behind the UniProt entries cited, without tags or fusion partners. Where a name states a change or a piece, a line headed by the entry shows the natural chain unless it says otherwise.
UniProt P51532: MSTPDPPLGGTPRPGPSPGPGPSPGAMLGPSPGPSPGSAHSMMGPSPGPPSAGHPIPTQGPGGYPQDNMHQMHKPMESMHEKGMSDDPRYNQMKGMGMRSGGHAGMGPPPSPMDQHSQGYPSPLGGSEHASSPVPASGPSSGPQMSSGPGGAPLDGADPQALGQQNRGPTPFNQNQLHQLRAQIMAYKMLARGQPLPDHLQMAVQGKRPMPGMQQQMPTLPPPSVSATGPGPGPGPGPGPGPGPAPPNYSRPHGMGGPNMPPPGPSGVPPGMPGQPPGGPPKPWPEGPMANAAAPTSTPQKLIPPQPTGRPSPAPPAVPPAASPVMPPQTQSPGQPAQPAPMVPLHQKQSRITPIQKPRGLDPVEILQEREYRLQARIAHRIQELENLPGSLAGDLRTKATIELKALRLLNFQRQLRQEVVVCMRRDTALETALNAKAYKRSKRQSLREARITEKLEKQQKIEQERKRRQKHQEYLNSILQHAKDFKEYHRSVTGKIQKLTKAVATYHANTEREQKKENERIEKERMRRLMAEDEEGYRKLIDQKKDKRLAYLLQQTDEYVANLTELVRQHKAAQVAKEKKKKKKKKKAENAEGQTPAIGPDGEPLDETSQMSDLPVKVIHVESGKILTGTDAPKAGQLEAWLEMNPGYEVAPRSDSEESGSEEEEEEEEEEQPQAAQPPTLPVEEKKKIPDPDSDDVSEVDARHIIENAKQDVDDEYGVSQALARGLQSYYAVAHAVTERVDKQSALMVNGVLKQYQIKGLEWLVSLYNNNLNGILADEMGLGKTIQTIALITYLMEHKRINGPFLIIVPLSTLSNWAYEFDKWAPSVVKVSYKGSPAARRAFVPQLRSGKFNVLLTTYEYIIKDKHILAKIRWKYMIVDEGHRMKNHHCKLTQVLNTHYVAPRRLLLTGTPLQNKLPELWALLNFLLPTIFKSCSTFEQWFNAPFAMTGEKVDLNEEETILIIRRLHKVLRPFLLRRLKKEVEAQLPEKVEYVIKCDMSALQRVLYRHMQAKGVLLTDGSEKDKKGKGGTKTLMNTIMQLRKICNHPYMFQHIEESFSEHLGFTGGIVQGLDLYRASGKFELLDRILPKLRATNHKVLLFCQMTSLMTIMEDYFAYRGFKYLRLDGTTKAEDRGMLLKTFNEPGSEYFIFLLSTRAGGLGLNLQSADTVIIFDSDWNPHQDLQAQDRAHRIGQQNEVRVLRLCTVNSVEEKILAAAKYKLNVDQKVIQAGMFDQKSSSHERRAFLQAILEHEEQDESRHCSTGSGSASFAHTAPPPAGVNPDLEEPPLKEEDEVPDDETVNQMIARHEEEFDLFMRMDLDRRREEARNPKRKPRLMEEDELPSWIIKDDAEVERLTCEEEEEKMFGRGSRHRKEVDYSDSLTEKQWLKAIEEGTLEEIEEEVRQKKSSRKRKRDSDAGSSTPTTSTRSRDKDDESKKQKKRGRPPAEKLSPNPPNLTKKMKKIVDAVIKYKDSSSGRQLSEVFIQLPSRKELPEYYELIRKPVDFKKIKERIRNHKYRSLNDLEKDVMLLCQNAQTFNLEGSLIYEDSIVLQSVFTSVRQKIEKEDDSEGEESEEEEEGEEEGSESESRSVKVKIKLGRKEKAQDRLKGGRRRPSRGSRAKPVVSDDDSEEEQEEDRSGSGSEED
UniProt Q9H8M2: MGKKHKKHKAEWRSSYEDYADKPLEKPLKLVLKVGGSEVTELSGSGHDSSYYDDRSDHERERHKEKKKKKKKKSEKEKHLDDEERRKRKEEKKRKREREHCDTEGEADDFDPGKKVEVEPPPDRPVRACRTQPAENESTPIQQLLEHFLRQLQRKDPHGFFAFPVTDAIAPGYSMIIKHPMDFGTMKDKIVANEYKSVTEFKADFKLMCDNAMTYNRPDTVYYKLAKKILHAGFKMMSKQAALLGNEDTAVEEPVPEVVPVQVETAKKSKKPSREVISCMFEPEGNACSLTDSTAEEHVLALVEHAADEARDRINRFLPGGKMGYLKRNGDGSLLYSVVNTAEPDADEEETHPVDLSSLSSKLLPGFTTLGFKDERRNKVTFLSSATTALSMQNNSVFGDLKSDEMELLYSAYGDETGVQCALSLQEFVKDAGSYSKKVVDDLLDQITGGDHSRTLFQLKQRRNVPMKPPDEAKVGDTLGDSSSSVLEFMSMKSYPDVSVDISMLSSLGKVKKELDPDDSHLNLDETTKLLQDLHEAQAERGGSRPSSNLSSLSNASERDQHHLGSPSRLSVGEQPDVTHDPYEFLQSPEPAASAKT
UniProt Q12824: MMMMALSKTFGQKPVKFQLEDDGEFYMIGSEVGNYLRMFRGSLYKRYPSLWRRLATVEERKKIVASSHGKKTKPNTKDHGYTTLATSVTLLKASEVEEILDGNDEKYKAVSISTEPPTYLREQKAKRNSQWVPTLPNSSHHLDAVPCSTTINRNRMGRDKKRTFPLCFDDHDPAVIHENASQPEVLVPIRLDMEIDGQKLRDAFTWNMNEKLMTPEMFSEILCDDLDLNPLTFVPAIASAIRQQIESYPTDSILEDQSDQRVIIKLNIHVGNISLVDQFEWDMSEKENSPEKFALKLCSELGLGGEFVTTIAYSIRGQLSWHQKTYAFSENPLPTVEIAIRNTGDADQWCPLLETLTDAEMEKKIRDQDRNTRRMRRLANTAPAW
UniProt Q969G3: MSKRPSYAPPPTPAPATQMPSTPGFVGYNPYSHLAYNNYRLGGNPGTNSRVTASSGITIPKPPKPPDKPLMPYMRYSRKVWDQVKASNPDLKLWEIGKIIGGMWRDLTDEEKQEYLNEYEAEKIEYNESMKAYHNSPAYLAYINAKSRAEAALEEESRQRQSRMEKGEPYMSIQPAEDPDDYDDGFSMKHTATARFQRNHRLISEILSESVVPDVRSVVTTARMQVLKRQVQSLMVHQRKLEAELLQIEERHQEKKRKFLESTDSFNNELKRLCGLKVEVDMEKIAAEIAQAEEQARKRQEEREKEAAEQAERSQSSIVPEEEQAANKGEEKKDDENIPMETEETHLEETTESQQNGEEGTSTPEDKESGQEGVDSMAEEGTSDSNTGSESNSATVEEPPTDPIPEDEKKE

binding [1] | binding [2] | Substance
binds | binds | BRD9 (from UniProt Q9H8M2 1-597)
binds | binds | SMARCB1 (from UniProt Q12824 1-385)
binds | binds | SMARCE1 (from UniProt Q969G3 1-411)

Reference: article PMC10017700, “The SMARCA4^R1157W mutation facilitates chromatin remodeling and confers PRMT1/SMARCA4 inhibitors sensitivity in colorectal cancer” (NPJ Precision Oncology, 2023)
